{
  "source": "paper PMC3260263",
  "about": "“Structural Characterization of a Novel Chlamydia pneumoniae Type III Secretion-Associated Protein, Cpn0803” (PLoS ONE, 2012)",
  "binders": {"B1": {"name": "native Cpn0803 (protein, UniProt Q9Z7A3 1-184)", "chain": "MAAKTKTLELEDNVFLLLEGNLKRIFATPIGYTTFREFQNVVFNCANGQQEIANFFFEMLINGKLTQELAPQQKQAAHSLIAEFMMPIRVAKDIHERGEFINFITSDMLTQQERCIFLNRLARVDGQEFLLMTDVQNTCHLIRHLLARLLEAQKNPVGEKNLQEIQEEITSLKNHFDELTKALQ"}},
  "target": "T1, GST-Cpn0803 (Chlamydia pneumoniae CWL029) (UniProt Q9Z7A3)",
  "T1 sequence": "B1 chain",
  "test": "pull-down; C. pneumoniae EB lysate (PBS, 1% Triton X-100) incubated with recombinant GST-tagged proteins for 6 h, glutathione agarose beads overnight; washed with 500 mM NaCl; Western blot with anti-Cpn0803; only the target purified",
  "note": "Results are given in words; binding and its absence hold for the method and conditions named. Binding seen in cells or lysates may run through a third protein. Some binding calls cover weakened binding; strength is not graded here. Where a sequence is shown, tags or fusion partners need not be part of it.",
  "data": [
    {"binder": "B1", "values": [
      {"measurement": "binding", "result": "binds"}
    ]}
  ]
}
